# Where “and” joins values, the source holds several entries; their conditions need not be identical. Identical values can stand only once. Further values from the same series stand in other lists.
# Tested on: RNA isoforms in PNN 1-46 SMA type I patient-derived fibroblasts
# Experiment: RNA Abundance Modulation (RNA isoform abundance, iFPM, HiSeq RNA sequencing)
# Format: cell-based, human
# Conditions: 3 μM
# Procedure: Cells from a cell line of interest are cultured in conditions sufficient to yield the number of cells capable of generating enough RNA for subsequent sequencing steps. Cells from the tested cell line are contacted with a compound described herein.
# To culture said cells, they are seeded, at appropriate concentrations in a volume of media in a cell culture container and incubated for 4, 5, 6, 7, 8, 9, 10, or more hours. A concentrated solution of compound in a vehicle (e.g., DMSO) is then added in sufficient volume to result in the intended final concentration of the compound, for example 100 nM, 500 nM, 1 μM, 5 μM, 10 μM, 15 μM, 20 μM, or more. The cells may also be treated with vehicle alone, as a control. A number of replicates of each concentration or control may be made (e.g., 2 replicates). The cells are then incubated at a constant temperature appropriate for cell culture of the particular cell line (e.g., 37° C.) for 6, 12, 18, 24, 48, or more hours. After incubation, the growth medium is removed and the cells are washed with the appropriate buffer (e.g., PBS). Cells are then removed from adherence to the cell culture container by treatment with a solution containing trypsin, and the trypsin subsequently quenched with the appropriate volume of buffer (e.g., DMEM-FBS). The cells are then pelleted with gentle centrifugation (e.g., ≤90×g centrifugal force) and resuspended in a buffer to lyse the cells for extraction of RNA. The cell lysates may then be frozen (e.g., at −80° C.) or, alternately, may immediately be used in a procedure to purify the RNA (e.g. by use of the RNEASY PLUS® minikit). The RNA from cell lysates is eluted in the appropriate volume of buffer (e.g., RNEASE-FREE H2O®). The resulting purified RNA may then be sequenced (e.g., using RNASeq) or analyzed using a human exon array (e.g., by GENECHIP® human exon array) to determine changes in the RNA levels in those cells treated with compound compared to those cells treated only with DMSO. The purified RNA may also be quantified by other methods known in the art.
# Using the RNA data obtained from sequencing, exon array, or other methods, a statistical analysis can reveal changes in the RNA levels of compound-treated compared with control. For example, t-test p-values may be calculated for the data obtained through sequencing and exon array methods in order to compare compound-treated cells to those treated with the DMSO control. […] Analysis of the sequencing and exon array data may then also yield predictions about the cause of the aberrant amount of an RNA transcript in the cells (e.g., perturbation of RNA splicing, RNA transcription, or RNA stability). These predictions may be further confirmed by methods known in the art. For example, RT-PCR and RT-qPCR may be used to confirm the change in amount of RNA transcripts for one or more particular transcripts of interest.
# Following the methods described above in Example 1, PNN 1-46 SMA type I patient-derived fibroblasts were treated with 300 nM or 3 μM Compounds 774 and 808 in 0.5% DMSO.
# 700,000 cells were seeded in 10 mL of medium (DMEM plus 10% FBS) in a T-75 flask. Cells were allowed to attach for at least 4 hrs, after which 50 μL of a 200× compound solution (100% DMSO) was added to each well, and the plate was incubated at 37° C. for 24 hrs.
# At the end of the incubation period, the supernatant was removed and the cells where washed with PBS. TrypLE (Invitrogen) express solution was added (e.g. 1.5 mL per one T75 flask). The flasks were incubated for 3 to 5 min at 37° C. The trypsin was then quenched, e.g., by adding 10 mL DMEM-FBS.
# Next, the cells were pelleted using gentle centrifugation without exceeding 90×g centrifugal force. The supernatant was removed and the cell pellet was re-suspended in 600 μL RLT buffer (the RLT buffer was supplemented with beta-mercaptoethanol according to the RNeasy protocol manual) by pipetting up and down until the pellet was completely dissolved […]
compound,measurement,setting,value
CCc1nc(C)cn2nc(-c3cc(=O)n4cc(C5CCN(C)CC5)cc(C)c4n3)cc12 [Compound 774],L2FC (x + 1),HMGCR AY429542,0.000
same,L2abs (Cpd-DMSO),HMGCR AY429542,0
same,abs (Cpd-DMSO),HMGCR AY429542,0 iFPM
same,amp FC (x + 1),HMGCR AY429542,1.00
same,ave Cpd,HMGCR AY429542,0 iFPM
same,FC (x + 1),HMGCR NM_000859,2.3153
same,L2FC (x + 1),HMGCR NM_000859,1.211
same,L2abs (Cpd-DMSO),HMGCR NM_000859,11.24
same,abs (Cpd-DMSO),HMGCR NM_000859,2421 iFPM
same,amp FC (x + 1),HMGCR NM_000859,2.32
same,ave Cpd,HMGCR NM_000859,4261 iFPM
same,FC (x + 1),HMGCR NM_001130996,1.1071
same,L2FC (x + 1),HMGCR NM_001130996,0.147
same,L2abs (Cpd-DMSO),HMGCR NM_001130996,2.80
same,abs (Cpd-DMSO),HMGCR NM_001130996,7 iFPM
same,amp FC (x + 1),HMGCR NM_001130996,1.11
same,ave Cpd,HMGCR NM_001130996,71 iFPM
same,FC (x + 1),HMGCS1 AK025736,2.6409
same,L2FC (x + 1),HMGCS1 AK025736,1.401
same,L2abs (Cpd-DMSO),HMGCS1 AK025736,3.75
same,abs (Cpd-DMSO),HMGCS1 AK025736,13 iFPM
same,amp FC (x + 1),HMGCS1 AK025736,2.64
same,ave Cpd,HMGCS1 AK025736,21 iFPM
same,FC (x + 1),HMGCS1 NM_002130,3.1962
same,L2FC (x + 1),HMGCS1 NM_002130,1.676
same,L2abs (Cpd-DMSO),HMGCS1 NM_002130,9.74
same,abs (Cpd-DMSO),HMGCS1 NM_002130,858 iFPM
same,amp FC (x + 1),HMGCS1 NM_002130,3.20
same,ave Cpd,HMGCS1 NM_002130,1247 iFPM
same,FC (x + 1),HMGCS1 NM_001098272,3.2671
same,L2FC (x + 1),HMGCS1 NM_001098272,1.708
same,L2abs (Cpd-DMSO),HMGCS1 NM_001098272,10.02
same,abs (Cpd-DMSO),HMGCS1 NM_001098272,1035 iFPM
same,amp FC (x + 1),HMGCS1 NM_001098272,3.27
same,ave Cpd,HMGCS1 NM_001098272,1491 iFPM
same,amp FC (x + 1),UCHL5 AK316064,1.39
same,amp FC (x + 1),UCHL5 BC015381,1.22
same,FC (x + 1),UCHL5 NM_015984,0.8637
same,L2FC (x + 1),UCHL5 NM_015984,−0.211
same,L2abs (Cpd-DMSO),UCHL5 NM_015984,6.12
same,abs (Cpd-DMSO),UCHL5 NM_015984,69 iFPM
same,amp FC (x + 1),UCHL5 NM_015984,1.16
same,ave Cpd,UCHL5 NM_015984,439 iFPM
same,FC (x + 1),UCHL5 NM_001199261,2.6069
same,L2FC (x + 1),UCHL5 NM_001199261,1.382
same,L2abs (Cpd-DMSO),UCHL5 NM_001199261,7.64
same,abs (Cpd-DMSO),UCHL5 NM_001199261,200 iFPM
same,amp FC (x + 1),UCHL5 NM_001199261,2.61
same,ave Cpd,UCHL5 NM_001199261,324 iFPM
same,FC (x + 1),UCHL5 NM_001199262,1.1349
same,L2FC (x + 1),UCHL5 NM_001199262,0.183
same,L2abs (Cpd-DMSO),UCHL5 NM_001199262,4.00
same,abs (Cpd-DMSO),UCHL5 NM_001199262,16 iFPM
same,amp FC (x + 1),UCHL5 NM_001199262,1.13
same,ave Cpd,UCHL5 NM_001199262,134 iFPM
same,FC (x + 1),UCHL5 NM_001199263,0.8534
same,L2FC (x + 1),UCHL5 NM_001199263,−0.229
same,L2abs (Cpd-DMSO),UCHL5 NM_001199263,4.98
same,abs (Cpd-DMSO),UCHL5 NM_001199263,31 iFPM
same,amp FC (x + 1),UCHL5 NM_001199263,1.17
same,ave Cpd,UCHL5 NM_001199263,182 iFPM
same,FC (x + 1),UCHL5 NR_037607,1.0924
same,L2FC (x + 1),UCHL5 NR_037607,0.127
same,L2abs (Cpd-DMSO),UCHL5 NR_037607,1.06
same,abs (Cpd-DMSO),UCHL5 NR_037607,2 iFPM
same,amp FC (x + 1),UCHL5 NR_037607,1.09
same,ave Cpd,UCHL5 NR_037607,24 iFPM
same,FC (x + 1),UHRF1BP1L BX647380,0.1346
same,L2FC (x + 1),UHRF1BP1L BX647380,−2.894
same,L2abs (Cpd-DMSO),UHRF1BP1L BX647380,7.07
same,abs (Cpd-DMSO),UHRF1BP1L BX647380,134 iFPM
same,amp FC (x + 1),UHRF1BP1L BX647380,7.43
same,ave Cpd,UHRF1BP1L BX647380,20 iFPM
same,FC (x + 1),UHRF1BP1L NM_015054,0.9853
same,L2FC (x + 1),UHRF1BP1L NM_015054,−0.021
same,L2abs (Cpd-DMSO),UHRF1BP1L NM_015054,4.55
same,abs (Cpd-DMSO),UHRF1BP1L NM_015054,23 iFPM
same,amp FC (x + 1),UHRF1BP1L NM_015054,1.01
same,ave Cpd,UHRF1BP1L NM_015054,1565 iFPM
same,FC (x + 1),UHRF1BP1L NM_001006947,0.4169
same,L2FC (x + 1),UHRF1BP1L NM_001006947,−1.262
same,L2abs (Cpd-DMSO),UHRF1BP1L NM_001006947,4.65
same,abs (Cpd-DMSO),UHRF1BP1L NM_001006947,25 iFPM
same,amp FC (x + 1),UHRF1BP1L NM_001006947,2.40
same,ave Cpd,UHRF1BP1L NM_001006947,17 iFPM
same,FC (x + 1),VANGL1 NM_138959,0.7825
same,L2FC (x + 1),VANGL1 NM_138959,−0.354
same,L2abs (Cpd-DMSO),VANGL1 NM_138959,9.31
same,abs (Cpd-DMSO),VANGL1 NM_138959,634 iFPM
same,amp FC (x + 1),VANGL1 NM_138959,1.28
same,ave Cpd,VANGL1 NM_138959,2279 iFPM
same,FC (x + 1),VANGL1 NM_001172412,0.0142
same,L2FC (x + 1),VANGL1 NM_001172412,−6.143
same,L2abs (Cpd-DMSO),VANGL1 NM_001172412,6.12
same,abs (Cpd-DMSO),VANGL1 NM_001172412,70 iFPM
same,amp FC (x + 1),VANGL1 NM_001172412,70.66
same,ave Cpd,VANGL1 NM_001172412,0 iFPM
same,FC (x + 1),VARS2 AB067472,0.1508
same,L2FC (x + 1),VARS2 AB067472,−2.729
same,L2abs (Cpd-DMSO),VARS2 AB067472,2.49
same,abs (Cpd-DMSO),VARS2 AB067472,6 iFPM
same,amp FC (x + 1),VARS2 AB067472,6.63
same,ave Cpd,VARS2 AB067472,0 iFPM
same,FC (x + 1),VARS2 AK000511,1.1599 and 0.7407
same,L2abs (Cpd-DMSO),VARS2 AK000511,2.00 and 1.77
same,abs (Cpd-DMSO),VARS2 AK000511,4 iFPM and 3 iFPM
same,amp FC (x + 1),VARS2 AK000511,1.16 and 1.35
same,abs (Cpd-DMSO),VARS2 AK094483,2 iFPM and 3 iFPM
same,amp FC (x + 1),VARS2 AK094483,2.53 and 3.14
same,FC (x + 1),VARS2 BC063427,1.1095
same,L2FC (x + 1),VARS2 BC063427,0.150
same,L2abs (Cpd-DMSO),VARS2 BC063427,0.01
same,abs (Cpd-DMSO),VARS2 BC063427,1 iFPM
same,amp FC (x + 1),VARS2 BC063427,1.11
same,ave Cpd,VARS2 BC063427,9 iFPM
same,ave Cpd,VARS2 BC143536,0 iFPM
same,L2abs (Cpd-DMSO),VARS2 NM_001167733,3.61 and 2.65
same,abs (Cpd-DMSO),VARS2 NM_001167733,12 iFPM and 6 iFPM
same,FC (x + 1),VARS2 NM_001167734,0.0219
same,L2FC (x + 1),VARS2 NM_001167734,−5.516
same,L2abs (Cpd-DMSO),VARS2 NM_001167734,5.48
same,abs (Cpd-DMSO),VARS2 NM_001167734,45 iFPM
same,amp FC (x + 1),VARS2 NM_001167734,45.77
same,ave Cpd,VARS2 NM_001167734,0 iFPM
